For at least one entry, the source does not settle the construct or the ends of the probe. At least one verdict rests on a figure or table, not on a statement of the authors.
Key:
[1] = target: YB-1C E117C-MTSL (Homo sapiens) (UniProt P67809); assay: NMR PRE; conditions: NMR: 100 uM protein, 1:1 oligo, 298 K (RNA 298 and 303 K); recombinant protein; residues 1-180; protein details: MTSL spin label; single-stranded DNA
[2] = target: YB-1C T108C-MTSL (Homo sapiens) (UniProt P67809); assay: NMR PRE; conditions: NMR: 100 uM protein, 1:1 oligo, 298 K (RNA 298 and 303 K); recombinant protein; residues 1-180; protein details: MTSL spin label; single-stranded DNA
[3] = target: YB-1C T62C-MTSL (Homo sapiens) (UniProt P67809); assay: NMR PRE; conditions: NMR: 100 uM protein, 1:1 oligo, 298 K (RNA 298 and 303 K); recombinant protein; residues 1-180; protein details: MTSL spin label; single-stranded DNA
[4] = target: YB-1C T89C-MTSL (Homo sapiens) (UniProt P67809); assay: NMR PRE; conditions: NMR: 100 uM protein, 1:1 oligo, 298 K (RNA 298 and 303 K); recombinant protein; residues 1-180; protein details: MTSL spin label; single-stranded DNA
[5] = target: YB-1C V114C-MTSL (Homo sapiens) (UniProt P67809); assay: NMR PRE; conditions: NMR: 100 uM protein, 1:1 oligo, 298 K (RNA 298 and 303 K); recombinant protein; residues 1-180; protein details: MTSL spin label; single-stranded DNA
YB-1C (Homo sapiens) [6] = target: YB-1C (Homo sapiens) (UniProt P67809); assay: NMR HSQC; conditions: NMR: 100 uM protein, 1:1 oligo, 298 K (RNA 298 and 303 K), recombinant protein, residues 1-180, protein details: His-tag (pET22b), untagged version also used
YB-1C (Homo sapiens) [7] = target: YB-1C (Homo sapiens) (UniProt P67809); assay: SAXS; conditions: 7.0 uM ssDNA; recombinant protein; residues 1-180; protein details: His-tag (pET22b), untagged version also used; single-stranded DNA

The chains behind the UniProt entries cited, without tags or fusion partners. Residues count along the entry.
UniProt P67809, 1-180 E117C: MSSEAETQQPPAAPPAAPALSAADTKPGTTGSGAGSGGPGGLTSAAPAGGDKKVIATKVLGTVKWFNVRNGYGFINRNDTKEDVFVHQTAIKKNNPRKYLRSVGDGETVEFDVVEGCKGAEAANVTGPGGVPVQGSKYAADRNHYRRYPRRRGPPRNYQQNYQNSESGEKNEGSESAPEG
UniProt P67809, 1-180 T108C: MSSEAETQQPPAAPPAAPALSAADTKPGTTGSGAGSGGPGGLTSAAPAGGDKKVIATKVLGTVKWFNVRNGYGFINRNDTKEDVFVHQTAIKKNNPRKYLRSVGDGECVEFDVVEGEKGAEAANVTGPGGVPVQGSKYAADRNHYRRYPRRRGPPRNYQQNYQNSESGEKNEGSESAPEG
UniProt P67809, 1-180 T62C: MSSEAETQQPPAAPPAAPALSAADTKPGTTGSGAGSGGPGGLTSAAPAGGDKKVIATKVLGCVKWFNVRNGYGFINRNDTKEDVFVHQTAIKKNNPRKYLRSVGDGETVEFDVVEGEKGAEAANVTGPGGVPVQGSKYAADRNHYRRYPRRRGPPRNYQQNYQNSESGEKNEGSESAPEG
UniProt P67809, 1-180 T89C: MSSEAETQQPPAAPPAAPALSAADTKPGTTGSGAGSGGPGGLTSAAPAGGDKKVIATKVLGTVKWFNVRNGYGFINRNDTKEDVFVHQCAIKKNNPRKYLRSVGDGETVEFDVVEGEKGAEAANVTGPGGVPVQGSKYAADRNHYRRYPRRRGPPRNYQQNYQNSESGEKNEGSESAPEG
UniProt P67809, 1-180 V114C: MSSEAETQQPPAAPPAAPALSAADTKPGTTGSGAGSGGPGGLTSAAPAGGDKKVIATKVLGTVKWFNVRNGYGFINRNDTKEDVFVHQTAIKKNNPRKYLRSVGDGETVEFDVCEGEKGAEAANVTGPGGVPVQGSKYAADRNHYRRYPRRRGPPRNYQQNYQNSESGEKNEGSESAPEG
UniProt P67809, 1-180: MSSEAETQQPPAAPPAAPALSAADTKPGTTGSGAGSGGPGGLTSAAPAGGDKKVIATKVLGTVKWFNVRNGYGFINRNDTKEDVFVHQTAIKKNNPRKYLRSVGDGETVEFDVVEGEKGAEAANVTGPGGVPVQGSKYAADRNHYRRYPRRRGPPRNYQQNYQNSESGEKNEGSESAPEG

CCCCCCCCCC [dC10]
binding result [1]: binds | binding result [2]: binds | binding result [3]: binds | binding result [4]: binds | binding result [5]: binds

CCCCCCCCCC [rC10]
binding result (YB-1C (Homo sapiens) [6]; 1:1): binds

TTTTTTTTTTTTTTTTTTTTTTTTTTTTTT [dT30]
binding result (YB-1C (Homo sapiens) [7]): binds | binding result (YB-1C (Homo sapiens) [6]; 1:1, peak broadening, single-stranded DNA): binds

UUUUUUUUUUUUUUUUUUUUUUUUUUUUUU [rU30]
binding result (YB-1C (Homo sapiens) [6]; 1:1, peak broadening): binds

Source: publication PMC6451097
